This passage reports binding results from paper PMC5065183.

Results are given in words; binding and its absence hold for the method and conditions named. In cells and extracts the contact can be indirect. Binding can be weak; no strength is given. Where a sequence is shown, tags or fusion partners need not be part of it.

Test [1] deals with T1, CdTlo1-6His-3Flag (C. dubliniensis Tlo1, Mediator Tail subunit Med2 ortholog) (C. dubliniensis) (UniProt B9WKI2).
T1 sequence: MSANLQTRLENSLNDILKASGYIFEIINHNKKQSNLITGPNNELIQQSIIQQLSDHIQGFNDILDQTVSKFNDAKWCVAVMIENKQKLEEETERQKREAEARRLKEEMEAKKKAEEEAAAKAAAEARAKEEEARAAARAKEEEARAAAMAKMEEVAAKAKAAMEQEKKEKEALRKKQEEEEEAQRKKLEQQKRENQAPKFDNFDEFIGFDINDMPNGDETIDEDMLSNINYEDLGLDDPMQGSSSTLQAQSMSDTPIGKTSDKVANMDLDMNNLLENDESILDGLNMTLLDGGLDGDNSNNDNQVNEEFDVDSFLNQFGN
Briefly: co-IP; affinity purification of C-terminal 6His3FLAG tagged Tlo variants from C. dubliniensis (as ref. 26, TALON step omitted; cell lysate, heparin, Flag); anti-Med1 immunoblot of the purified sample. In general terms: A western blot detects proteins with antibodies after separation by electrophoresis.

Test [2] has as its target C. dubliniensis Med1 (Mediator Middle module subunit) (C. dubliniensis (endogenous in C. dubliniensis)). Briefly: co-IP; immunodepletion with anti-Med1 antibody on Protein G Dynabeads, 2 hours at 4°C; sample: Mediator complex purified through 6His3FLAG-tagged Tlo1; anti-HA antibody as control.

For the molecule “C. dubliniensis Med1 (Mediator Middle module subunit)”, in test [1], the binding entry was “binds”.

B1: CdTlo1-6His-3Flag (C. dubliniensis Tlo1, Mediator Tail subunit Med2 ortholog) (protein, UniProt B9WKI2 1-320)
chain: MSANLQTRLENSLNDILKASGYIFEIINHNKKQSNLITGPNNELIQQSIIQQLSDHIQGFNDILDQTVSKFNDAKWCVAVMIENKQKLEEETERQKREAEARRLKEEMEAKKKAEEEAAAKAAAEARAKEEEARAAARAKEEEARAAAMAKMEEVAAKAKAAMEQEKKEKEALRKKQEEEEEAQRKKLEQQKRENQAPKFDNFDEFIGFDINDMPNGDETIDEDMLSNINYEDLGLDDPMQGSSSTLQAQSMSDTPIGKTSDKVANMDLDMNNLLENDESILDGLNMTLLDGGLDGDNSNNDNQVNEEFDVDSFLNQFGN
B1: in test [2], the binding entry was “binds”.
